Measured values: patent publication US20250011423A1
These are yes or no findings as the source states them, for the method shown. Some entries that bind do so weakly or less than the wild type.

The chains behind the UniProt entries cited, without tags or fusion partners. Where a name states a change or a piece, a line headed by the entry shows the natural chain unless it says otherwise.
UniProt Q86YW5: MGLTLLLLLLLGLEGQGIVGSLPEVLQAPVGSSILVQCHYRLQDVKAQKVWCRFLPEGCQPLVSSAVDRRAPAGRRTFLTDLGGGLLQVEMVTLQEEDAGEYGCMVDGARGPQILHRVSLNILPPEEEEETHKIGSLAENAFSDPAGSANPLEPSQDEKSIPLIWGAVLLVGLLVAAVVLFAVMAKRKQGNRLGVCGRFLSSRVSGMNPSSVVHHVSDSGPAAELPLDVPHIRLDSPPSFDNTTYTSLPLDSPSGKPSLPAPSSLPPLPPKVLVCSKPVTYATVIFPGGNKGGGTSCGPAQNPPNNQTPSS

Legend:
[1] = target: recombinant I-domain of CD11b (Homo sapiens (Human)) (UniProt P11215); experiment: solid phase binding assay, I-domain coated, detection with MAB2394 (FIG. 2)
[2] = target: recombinant I-domain of CD11b (Homo sapiens (Human)) (UniProt P11215); experiment: solid phase binding assay (legend of FIG. 2)

human TREML1 ECD (from UniProt Q86YW5 16-162) (ligand)
binding [1]: binds | binding [2]: binds
